Test results reported in US20100227793A1, “Compositions and Methods for Treating Amyotrophic Lateral Sclerosis” (priority 2009, published 2010).
At least one compound was matched to its structure with a doubt left.

Test system: inhibition of anterograde FAT by G93A-SOD1
Assay: Co-perfusion of G93A-SOD1 with kinase inhibitors in squid axoplasm (vesicle motility assay)
Type: cell-based
Conditions: for prevention of the inhibition of anterograde FAT induced by G93A-SOD1: co-perfused with recombinant G93A-SOD1 in axoplasm
Experimental: Increased phosphorylation of neurofilament indicated altered kinase activity with mutant SOD1 and kinases represent a major mechanism for the regulation of conventional kinesin (Donelan, et al. (2002) J. Biol. Chem. 277:24232-42; Morfini, et al. (2006) Nat. Neurosci. 9:907-16; Morfini, et al. (2002) EMBO J. 23:281-93; Morfini, et al. (2001) Dev. Neurosci. 23:364-76). Accordingly, it was determined whether specific protein kinases mediated the effect of mutant SOD1 on anterograde FAT. To this end, axoplasms were co-perfused with recombinant G93A-SOD1 and specific pharmacological or peptide inhibitors of protein kinases. Co-perfusion approaches have facilitated the identification of kinase-dependent pathogenic pathways in other models.
SB203580 is a highly specific pharmacological kinase inhibitor of the mitogen-activated protein kinase (MAPK) p38, and its specificity has been evaluated for more than 100 kinases (Fabian, et al. (2005) Nat. Biotechnol. 23:329-36).
In addition to the docking interactions of MAPKs with MKKs, substrates and regulators there are specific motifs that control the interactions of MKKKs and MKKs. A docking site termed DVD (domain for versatile docking) is found in several MKKs including MKK3 and MKK6, which are involved in p38 regulation. […] Observations of p38 activation in an ALS mouse model prompted the evaluation of the role of MKKs in mediating the inhibitory effect of mutant SOD1 on FAT. To this end, pharmacological inhibitors of MKKKs were co-perfused along with SOD1-G93A in squid axoplasm. The MLK-specific inhibitor CEP11004 (Ganguly, et al. (2004) J. Neurochem. 88(2):469) was ineffective, but co-perfusion of mutant SOD1 with DVD peptide prevented the effects of mutant SOD1 on FAT. The DVD site on MKKs is required for docking and activation by a subset of upstream MKKKs (ASK1, TAK1, etc.), and peptides based on this sequences prevents MAPK activation in cultured cells (Takekawa, et al. (2005) Mol. Cell. 18(3):295).

Oc1c2ccccc2c2c3c(cccc13)N=N2 [SP600125]
anterograde FAT rates compared with WT-SOD1-perfused axoplasm (co-perfused with G93A-SOD1, FIG. 2): significantly different
prevention of the inhibition of anterograde FAT induced by G93A-SOD1: failed to block
prevention of the inhibition of anterograde FAT induced by G93A-SOD1 (listed as 5P600125): lack of protection
